{"source": "patent US9339034B2", "about": "“Use of thaxtomin for selective control of rice and aquatic based weeds” (MARRONE BIO INNOVATIONS, INC., priority 2009, dated 2016)", "key": {"[1]": {"test_system": "Ammania species", "test": "First study, weed control", "assay_type": "in vivo", "conditions": "64 to 1000 g a.i. per hectare"}, "[2]": {"test_system": "micropropagated in vitro cultures of potato", "conditions": "cited from earlier work"}, "[3]": {"test_system": "Cyperus difformis", "test": "First study, weed control", "assay_type": "in vivo", "conditions": "64 to 1000 g a.i. per hectare"}, "[4]": {"test_system": "Ducksalad", "test": "First study, weed control", "assay_type": "in vivo", "conditions": "64 to 1000 g a.i. per hectare"}}, "note": "At least one compound was matched to its structure with a doubt left. Some of these results come from one statement about several compounds together. Some ranges recur; such a range may be that of the whole group of compounds.", "data": [{"compound": "CN1C(=O)[C@](O)(Cc2cccc(O)c2)N(C)C(=O)[C@@H]1Cc1c[nH]c2cccc([N+](=O)[O-])c12", "note": "[thaxtomin A]", "values": [{"measurement": "% control", "setting": "[1]", "result": "95-0.100"}, {"measurement": "concentration inducing necrosis", "setting": "[2]", "result": "200-1000 ppb"}, {"measurement": "concentration inducing reduced shoot and root growth, root swelling", "setting": "[2]", "result": "10-200 ppb"}, {"measurement": "% control", "setting": "[3]", "result": "95-0.100"}, {"measurement": "% control", "setting": "[4]", "result": "95-0.100"}]}, {"compound": "CN1C(=O)[C@](O)(Cc2ccccc2)N(C)C(=O)[C@@H]1Cc1c[nH]c2cccc([N+](=O)[O-])c12", "note": "[thaxtomin B]", "values": [{"measurement": "concentration inducing necrosis", "setting": "[2]", "result": "200-1000 ppb"}, {"measurement": "concentration inducing reduced shoot and root growth, root swelling", "setting": "[2]", "result": "10-200 ppb"}]}, {"compound": "CN1C(=O)[C@H](Cc2c[nH]c3cccc([N+](=O)[O-])c23)N(C)C(=O)[C@@H]1Cc1ccccc1", "note": "[thaxtomin D]", "values": [{"measurement": "concentration inducing necrosis", "setting": "[2]", "result": "200-1000 ppb"}, {"measurement": "concentration inducing reduced shoot and root growth, root swelling", "setting": "[2]", "result": "10-200 ppb"}]}, {"compound": "thaxtomin A ortho isomer", "values": [{"measurement": "concentration inducing necrosis", "setting": "[2]", "result": "200-1000 ppb"}, {"measurement": "concentration inducing reduced shoot and root growth, root swelling", "setting": "[2]", "result": "10-200 ppb"}]}]}
